These are yes or no findings as the source states them, for the method shown. Binding seen in cells or lysates may run through a third protein. Binding can be weak; no strength is given.
Target: GmCRY1b-YFP (soybean (Glycine max)) (UniProt D0FZ12)
Assay: co-IP; leaves of the GmCRY1b-YFP-1 line transiently expressing 3×Flag-GmRGAa or 3×Flag-GmRGAb; dark-adapted leaves kept in the dark or exposed to blue light (50 μmol m^-2 s^-1) for 3 h; GFP-Trap agarose, 4 °C, 4 h; anti-Flag blot

binding: binds
Substance: 3×Flag-GmRGAb (from UniProt I1KRT7)
